Measured values published in article PMC12570964 (Nature Microbiology, 2025).
No constants are given. Whether binding was seen depends on the method and setting. For some of these results: In cells and extracts the contact can be indirect. Some binding calls cover weakened binding; strength is not graded here. For some of these results: Sequences can lack the tags named with a protein.

T1: HA-tagged mouse IFIT3 (mouse) (UniProt Q64345)
T1 sequence: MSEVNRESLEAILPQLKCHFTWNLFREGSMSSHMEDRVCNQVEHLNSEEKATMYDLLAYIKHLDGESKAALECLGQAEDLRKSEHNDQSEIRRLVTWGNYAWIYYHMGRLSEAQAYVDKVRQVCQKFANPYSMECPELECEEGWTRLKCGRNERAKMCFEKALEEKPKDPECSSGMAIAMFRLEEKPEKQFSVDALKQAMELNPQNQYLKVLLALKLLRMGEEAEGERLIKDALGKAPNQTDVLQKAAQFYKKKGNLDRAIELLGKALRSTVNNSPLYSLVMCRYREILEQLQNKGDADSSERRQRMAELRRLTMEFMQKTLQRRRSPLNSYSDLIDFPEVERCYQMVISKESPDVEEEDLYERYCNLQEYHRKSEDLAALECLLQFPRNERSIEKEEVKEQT

T2: mouse IFIT3 (M. musculus Ifit3, co-expressed with Ifit2 in E. coli) (M. musculus) (UniProt Q64345)
T2 sequence: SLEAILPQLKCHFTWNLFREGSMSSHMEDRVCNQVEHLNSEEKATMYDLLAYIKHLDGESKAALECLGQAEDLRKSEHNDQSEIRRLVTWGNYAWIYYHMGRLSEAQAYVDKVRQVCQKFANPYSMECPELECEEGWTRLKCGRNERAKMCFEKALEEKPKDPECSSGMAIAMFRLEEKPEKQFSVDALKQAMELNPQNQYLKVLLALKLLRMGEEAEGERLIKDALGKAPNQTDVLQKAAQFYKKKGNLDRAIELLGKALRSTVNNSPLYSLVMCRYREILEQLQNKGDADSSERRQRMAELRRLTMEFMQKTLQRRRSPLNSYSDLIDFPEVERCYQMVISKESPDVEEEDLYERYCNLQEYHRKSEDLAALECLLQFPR


How the values were obtained:
[1] = target: T1, HA-tagged mouse IFIT3 (mouse); assay: co-IP
[2] = target: T2, mouse IFIT3 (M. musculus Ifit3, co-expressed with Ifit2 in E. coli) (M. musculus); assay: cryo-EM structure; both purified

Row | binding [1] | Binder | binding [2]
1 | no binding | endogenous human IFIT1 (protein, UniProt P09914 1-478) MSTNGDDHQVKDSLEQLRCHFTWELSIDDDEMPDLENRVLDQIEFLDTKYSVGIHNLLAYVKHLKGQNEEALKSLKEAENLMQEEHDNQANVRSLVTWGNFAWMYYHMGRLAEAQTYLDKVENICKKLSNPFRYRMECPEIDCEEGWALLKCGGKNYERAKACFEKVLEVDPENPESSAGYAISAYRLDGFKLATKNHKPFSLLPLRQAVRLNPDNGYIKVLLALKLQDEGQEAEGEKYIEEALANMSSQTYVFRYAAKFYRRKGSVDKALELLKKALQETPTSVLLHHQIGLCYKAQMIQIKEATKGQPRGQNREKLDKMIRSAIFHFESAVEKKPTFEVAHLDLARMYIEAGNHRKAEENFQKLLCMKPVVEETMQDIHFHYGRFQEFQKKSDVNAIIHYLKAIKIEQASLTRDKSINSLKKLVLRKLRRKALDLESLSLLGFVYKLEGNMNEALEYYERALRLAADFENSVRQGP | 
2 | no binding | overexpressed human IFIT1 (protein, UniProt P09914 1-478) MSTNGDDHQVKDSLEQLRCHFTWELSIDDDEMPDLENRVLDQIEFLDTKYSVGIHNLLAYVKHLKGQNEEALKSLKEAENLMQEEHDNQANVRSLVTWGNFAWMYYHMGRLAEAQTYLDKVENICKKLSNPFRYRMECPEIDCEEGWALLKCGGKNYERAKACFEKVLEVDPENPESSAGYAISAYRLDGFKLATKNHKPFSLLPLRQAVRLNPDNGYIKVLLALKLQDEGQEAEGEKYIEEALANMSSQTYVFRYAAKFYRRKGSVDKALELLKKALQETPTSVLLHHQIGLCYKAQMIQIKEATKGQPRGQNREKLDKMIRSAIFHFESAVEKKPTFEVAHLDLARMYIEAGNHRKAEENFQKLLCMKPVVEETMQDIHFHYGRFQEFQKKSDVNAIIHYLKAIKIEQASLTRDKSINSLKKLVLRKLRRKALDLESLSLLGFVYKLEGNMNEALEYYERALRLAADFENSVRQGP | 
3 |  | mouse IFIT2 (M. musculus Ifit2, co-expressed with Ifit3 in E. coli) (natural protein, UniProt Q64112 1-472, looked up, also called interferon-induced protein with tetratricopeptide repeats 2; source: E. coli Rosetta pLysS, co-expressed with Ifit3, purified (nickel column, TEV cleavage, Superdex 200 size exclusion)) MSTTSKESLVCNLRQLKCHFTWNLIAEDESLDEFEDRVFNKDEFQNSEFKATMCNILAYVKHCRGLNEAALQCLGEAEGFIQQQHPDQVEIRSLVTWGNYAWVYYHMGQFSKAQAYLDKVKQVCKKFSSPYRIENPALDCEEGWARLKCTKNQNERVKVCFQKALEKDPKNPEFTSGWAIAFYRLDDWPARNYCIDSLEQAIQLSPDNTYVKVLLALKLDAVHVHKNQAMALVEEALKKDPSAIDTLLRAARFYCKVYDTDRAIQLLRKALEKLPNNAYVHYYMGCCYRSKVHHMLNRREMVFSGDRKKLEELIQLAVNHLRKAEEIKEMLEYSCSFLADLYIIAKKYDEADYYFQKELSKDLPPGPKQLLHLRYGNFQFFQMKRQDKAIYHYMEGVKIKKKTIPQKKMREKLQRIALRRLHEDESDSEALHILAFLQENGGGQQADKDSERGVDSANQVPSASLDEDGAEY | binds
4 | binds | 3×FLAG-tagged mouse IFIT2 (protein, UniProt Q64112 1-472) MSTTSKESLVCNLRQLKCHFTWNLIAEDESLDEFEDRVFNKDEFQNSEFKATMCNILAYVKHCRGLNEAALQCLGEAEGFIQQQHPDQVEIRSLVTWGNYAWVYYHMGQFSKAQAYLDKVKQVCKKFSSPYRIENPALDCEEGWARLKCTKNQNERVKVCFQKALEKDPKNPEFTSGWAIAFYRLDDWPARNYCIDSLEQAIQLSPDNTYVKVLLALKLDAVHVHKNQAMALVEEALKKDPSAIDTLLRAARFYCKVYDTDRAIQLLRKALEKLPNNAYVHYYMGCCYRSKVHHMLNRREMVFSGDRKKLEELIQLAVNHLRKAEEIKEMLEYSCSFLADLYIIAKKYDEADYYFQKELSKDLPPGPKQLLHLRYGNFQFFQMKRQDKAIYHYMEGVKIKKKTIPQKKMREKLQRIALRRLHEDESDSEALHILAFLQENGGGQQADKDSERGVDSANQVPSASLDEDGAEY | 
